In article PMC10445730:
No constants are given. Whether binding was seen depends on the method and setting. Binding seen in cells or lysates may run through a third protein. A result given as binding can be weak or reduced; the word gives no strength. Where a sequence is shown, tags or fusion partners need not be part of it.

Molecular target: V5-tagged full-length SMRTER (Drosophila)
Test: co-IP; S2 cells co-transfected with HA-tagged HDAC3 and V5-tagged Smr; V5 antibody with protein A/G magnetic beads; blot probed with HA antibody

Row | binding | Binder
1 | binds | HA-tagged wild-type Drosophila HDAC3 (enzyme, UniProt Q7KTS4 1-438) MTDRRVSYFYNADVGNFHYGAGHPMKPQRLAVTHSLVMNYGLHKKMKIYRPYKASAQDMLRFHSDEYIAYLQQVTPQNIQCNSVAYTKYLAHFSVGEDCPVFDGLFDFCAMYTGASLEGAQKLNHNHSDICINWSGGLHHAKKFEASGFCYVNDIVIGILELLKYHPRVLYIDIDVHHGDGVQEAFYLTDRVMTASFHKYGNYFFPGTGDMYEIGAESGRYYSVNVPLKEGIDDQSYFQVFKPIISAIMDFYRPTAIVLQCGADSLAGDRLGCFSLSTKGHGECVKFVKELNVPTLVVGGGGYTLRNVARCWTHETSLLVDQDIENDLPATEYYDFFAPDFTLHPEINSRQDNANSKQYLELIVKHVYENLKMCQHSPSVQMVQTPPDVDLEELRSNREEASDPDVRISVADEDKLVDAKNEFYDGDQDQDKPDSAES
2 | binds | HA-tagged Drosophila HDAC3 K26A (enzyme, UniProt Q7KTS4 1-438) MTDRRVSYFYNADVGNFHYGAGHPMAPQRLAVTHSLVMNYGLHKKMKIYRPYKASAQDMLRFHSDEYIAYLQQVTPQNIQCNSVAYTKYLAHFSVGEDCPVFDGLFDFCAMYTGASLEGAQKLNHNHSDICINWSGGLHHAKKFEASGFCYVNDIVIGILELLKYHPRVLYIDIDVHHGDGVQEAFYLTDRVMTASFHKYGNYFFPGTGDMYEIGAESGRYYSVNVPLKEGIDDQSYFQVFKPIISAIMDFYRPTAIVLQCGADSLAGDRLGCFSLSTKGHGECVKFVKELNVPTLVVGGGGYTLRNVARCWTHETSLLVDQDIENDLPATEYYDFFAPDFTLHPEINSRQDNANSKQYLELIVKHVYENLKMCQHSPSVQMVQTPPDVDLEELRSNREEASDPDVRISVADEDKLVDAKNEFYDGDQDQDKPDSAES
3 | binds | HA-tagged Drosophila HDAC3 Y303F (enzyme, UniProt Q7KTS4 1-438) MTDRRVSYFYNADVGNFHYGAGHPMKPQRLAVTHSLVMNYGLHKKMKIYRPYKASAQDMLRFHSDEYIAYLQQVTPQNIQCNSVAYTKYLAHFSVGEDCPVFDGLFDFCAMYTGASLEGAQKLNHNHSDICINWSGGLHHAKKFEASGFCYVNDIVIGILELLKYHPRVLYIDIDVHHGDGVQEAFYLTDRVMTASFHKYGNYFFPGTGDMYEIGAESGRYYSVNVPLKEGIDDQSYFQVFKPIISAIMDFYRPTAIVLQCGADSLAGDRLGCFSLSTKGHGECVKFVKELNVPTLVVGGGGFTLRNVARCWTHETSLLVDQDIENDLPATEYYDFFAPDFTLHPEINSRQDNANSKQYLELIVKHVYENLKMCQHSPSVQMVQTPPDVDLEELRSNREEASDPDVRISVADEDKLVDAKNEFYDGDQDQDKPDSAES
